The series relates to Drosophila melanogaster fly head homogenates. In words: Western blot analysis of fly head homogenates expressing sensor variants. The conditions noted are these: FIG. 10C. A general note: In western blotting, separated proteins are transferred to a membrane and probed.

B1: CIRL^H>A-NRS-LexA: NTF release sensor for dmCIRL, GPS cleavage site mutated (His to Ala at −2) (protein)
chain: MKLCILLAVVAFVGLSLGETGFPKSLSVLNSRCAHKQSCGVLAATSMFGDPCPGTHKYLEAHYQCISAAQTSTTTNRPSPPPWVLSNGPPIFGNGSGLIHPPGVGAGAPPPPRLPTLPGVVGISGNPGLFNVPPQHTAVTHSTPSSSTTAVGGGRLKGGATSTTTTKHPAGRHDGLPPPPQLHHHHNHHGEDTASPTKPSSKLPAGGNATSPSNTRILTGVGGSGTDDGTLLTTKSSPNRPPGTAASGSVVPGNGSVVRTINNINLNAAGMSGGDDESKLFCGPTHARNLYWNMTRVGDVNVQPCPGGAAGIAKWRCVLMKRIPDSGYDEYDDDISSTTPAPSGGDCLHNSSSCEPPVSMAHKVNQRLRNFEPTWHPATPDLTQCRSLWLNNLEMRVNQRDSSLISIANDMSEVTSSKTLYGGDMLVTTKIIQTVSEKMMHDKETFPDQRQREAMIMELLHCVVKTGSNLLDESQLSSWLDLNPEDQMRVATSLLTGLEYNAFLLADTIIRERSVVQKVKNILLSVRVLETKTIQSSVVFPDSDQWPLSSDRIELPRAALIDNSEGGLVRIVFAAFDRLESILKPSYDHFDLKSSRSYAILSNDSDVNAGEIQQRLRILNSKVISASLGKGRHIQLSQPITLTLKHLKTENVTNPTCVFWNYIDHAWSANGCSLESTNRTHSVCSCNALTNFAILMDVVDEHQHSLFTMFDGNMRPRIDTAAKHQLRNDFQIHSVRGIKNPGDEDNGEPPANVKYVITGIILVIIALAFFGMVLSTQRKRSGPPKLKALTARQQEVFDLIRDHISQTGMPPTRAEIAQRLGFRSPNAAEEHLKALARKGVIEIVSGASRGIRLLQEEEEGLPLVGRVAAGEPLLAQQHIEGHYQVDPSLFKPNADFLLRVSGMSMKDIGIMDGDLLAVHKTQDVRNGQVVVARIDDEVTVKRLKKQGNKVELLPENSEFKPIVVDLRQQSFTIEGLAVGVIRNGDWLEFPGIRRPAGIPGDLAPPTDVSLGDELHLDGEDVAMAHADALDDFDLDMLGDGDSPGPGFTPHDSAPYGALDMADFEFEQMFTDALGIDEYGGASRYLDPAFLYKVVSSATMDYKDHDGDYKDHDIDYKDDDDKHRST
modifications: Full-length NTF release sensor for dmCIRL (GPS cleavage site mutated)
In the case of B1, the GPS cleavage result is “entirely blocked”.

B2: CIRL-NRS^S3-LexA: NTF release sensor for dmCIRL, S3 cleavage site mutated (disabled γ-secretase recognition) (protein)
chain: MKLCILLAVVAFVGLSLGETGFPKSLSVLNSRCAHKQSCGVLAATSMFGDPCPGTHKYLEAHYQCISAAQTSTTTNRPSPPPWVLSNGPPIFGNGSGLIHPPGVGAGAPPPPRLPTLPGVVGISGNPGLFNVPPQHTAVTHSTPSSSTTAVGGGRLKGGATSTTTTKHPAGRHDGLPPPPQLHHHHNHHGEDTASPTKPSSKLPAGGNATSPSNTRILTGVGGSGTDDGTLLTTKSSPNRPPGTAASGSVVPGNGSVVRTINNINLNAAGMSGGDDESKLFCGPTHARNLYWNMTRVGDVNVQPCPGGAAGIAKWRCVLMKRIPDSGYDEYDDDISSTTPAPSGGDCLHNSSSCEPPVSMAHKVNQRLRNFEPTWHPATPDLTQCRSLWLNNLEMRVNQRDSSLISIANDMSEVTSSKTLYGGDMLVTTKIIQTVSEKMMHDKETFPDQRQREAMIMELLHCVVKTGSNLLDESQLSSWLDLNPEDQMRVATSLLTGLEYNAFLLADTIIRERSVVQKVKNILLSVRVLETKTIQSSVVFPDSDQWPLSSDRIELPRAALIDNSEGGLVRIVFAAFDRLESILKPSYDHFDLKSSRSYAILSNDSDVNAGEIQQRLRILNSKVISASLGKGRHIQLSQPITLTLKHLKTENVTNPTCVFWNYIDHAWSANGCSLESTNRTHSVCSCNHLTNFAILMDVVDEHQHSLFTMFDGNMRPRIDTAAKHQLRNDFQIHSVRGIKNPGDEDNGEPPANVKYVITGIILVIIALAFFGMKLSTQRKRSGPPKLKALTARQQEVFDLIRDHISQTGMPPTRAEIAQRLGFRSPNAAEEHLKALARKGVIEIVSGASRGIRLLQEEEEGLPLVGRVAAGEPLLAQQHIEGHYQVDPSLFKPNADFLLRVSGMSMKDIGIMDGDLLAVHKTQDVRNGQVVVARIDDEVTVKRLKKQGNKVELLPENSEFKPIVVDLRQQSFTIEGLAVGVIRNGDWLEFPGIRRPAGIPGDLAPPTDVSLGDELHLDGEDVAMAHADALDDFDLDMLGDGDSPGPGFTPHDSAPYGALDMADFEFEQMFTDALGIDEYGGASRYLDPAFLYKVVSSATMDYKDHDGDYKDHDIDYKDDDDKHRST
modifications: Full-length NTF release sensor for dmCIRL (S3 cleavage site mutated)
For the molecule B2, the S3 proteolytic processing entry is “quenched”.

The values above are taken from patent publication US20240010704A1, “CHIMERIC SENSOR PROTEIN AND METHODS OF USE THEREOF” (Universitaet Leipzig, priority 2020, published 2024).
